Source: PubChem BioAssay AID256 (DTP/NCI, 2004)
The list shows only some results of the screen, not a fair sample: its compounds were picked by chemical class. Other doses and runs of a compound may be missing. T/C is the treated group as % of the vehicle group. Some entries give survivors of the animals treated and no T/C: the source files T/C as zero there, which appears to mark a toxic dose or a test without result, not a measured value. Some doses without a T/C left all or most animals alive at the check, yet need not have been tolerated: survival well below the control is almost never listed, so the zero probably covers shortened survival too. Counts of survivors are from the toxicity check (mostly the fifth day) where no day follows; animals may have died later. Schedules are NCI's codes, taken here to give the interval after Q, in days (D) or hours (H), and the number of doses after X. For survival time, the PubChem record calls one and a half times the control and up active, and a quarter to a half above the control has no call in these data; cut-offs in other NCI protocols can differ. Some entries show no survivor count and are marked so; the dose need not have been tolerated. Some T/C values are followed by the survivors on the day toxicity was checked, most often the fifth; without a count or a note in brackets, all were alive then. Some metal complexes and salts are drawn in pieces, as in the source, so charges may not balance.

Test system: CD2F1 mice, L1210 leukemia ip, survival T/C
Test: NCI In Vivo Anticancer Drug Screen. Data for tumor model L1210 Leukemia (intraperitoneal) in CD2F1 (CDF1) mice
Details: T/C endpoint: mean survival time, higher T/C = longer survival
Outline: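 Transplantable tumor in mice; compound-treated vs vehicle-treated groups. Read-out = treated/control ratio of the measured endpoint.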

[1] = dose: 75.0 mg/kg/injection, schedule: Q01DX001 (ip), vehicle: saline
[2] = dose: 150.0 mg/kg/injection, schedule: Q01DX001 (ip), vehicle: saline
[3] = dose: 100.0 mg/kg/injection, schedule: Q01DX001 (ip), vehicle: saline with Tween-80
[4] = dose: 200.0 mg/kg/injection, schedule: Q01DX001 (ip), vehicle: saline with Tween-80
[5] = dose: 400.0 mg/kg/injection, schedule: Q01DX001 (ip), vehicle: saline with Tween-80
[6] = dose: 25.0 mg/kg/injection, schedule: Q04DX003 (ip), vehicle: saline with Tween-80
[7] = dose: 100.0 mg/kg/injection, schedule: Q04DX003 (ip), vehicle: saline with Tween-80
[8] = dose: 100.0 mg/kg/injection, schedule: Q04DX003 (ip), vehicle: saline
[9] = dose: 200.0 mg/kg/injection, schedule: Q04DX003 (ip), vehicle: saline
[10] = dose: 400.0 mg/kg/injection, schedule: Q04DX003 (ip), vehicle: saline

In the case of `CCN(CC)CCOC(=O)C(O)(c1cccc(C)c1)c1csc2ccccc12` (stereo not given), the T/C [1] is reported as 101 % of control and the T/C [2] is reported as 97 % of control.

In the case of `O=C(Cl)Oc1ccccc1`, the T/C [1] is reported as 95 % of control, the T/C [2] is reported as 106 % of control and the T/C (dose: 300.0 mg/kg/injection, schedule: Q01DX001 (ip), vehicle: saline) is reported as 101 % of control.

For `CCN(CC)[P+](c1ccc(OC)cc1OC)(N(CC)CC)N(CC)CC.F[P-](F)(F)(F)(F)F`, the T/C (dose: 6.25 mg/kg/injection, schedule: Q01DX009 (ip), vehicle: Klucel (hydroxypropylcellulose) (HPC)) was 109 % of control [5 of 6 alive], the T/C (dose: 12.5 mg/kg/injection, schedule: Q01DX009 (ip), vehicle: Klucel (hydroxypropylcellulose) (HPC)) was 91 % of control and the T/C (dose: 25.0 mg/kg/injection, schedule: Q01DX009 (ip), vehicle: Klucel (hydroxypropylcellulose) (HPC)) was 89 % of control [4 of 6 alive]. The survivor count (dose: 50.0 mg/kg/injection, schedule: Q01DX009 (ip), vehicle: Klucel (hydroxypropylcellulose) (HPC)) was 1 of 6.

With `CCOC(=O)c1ccc(N(CN)S(=O)(=O)c2ccc(C)cc2)cc1.O=[N+]([O-])c1cc([N+](=O)[O-])c(O)c([N+](=O)[O-])c1` the T/C [3] was 101 % of control, the T/C [4] was 92 % of control and the T/C [5] was 95 % of control.

`C1CCC(C2CCCC[N-]2)[N-]C1.[N-]=[N+]=N.[N-]=[N+]=N.[Pd]` (stereo not given) was tested, and the T/C (dose: 3.13 mg/kg/injection, schedule: Q04DX003 (ip), vehicle: distilled water + Tween-80) was 103 % of control, the T/C (dose: 6.25 mg/kg/injection, schedule: Q04DX003 (ip), vehicle: distilled water + Tween-80) was 103 % of control and the T/C (dose: 12.5 mg/kg/injection, schedule: Q04DX003 (ip), vehicle: distilled water + Tween-80) was 96 % of control. The T/C (dose: 25.0 mg/kg/injection, schedule: Q04DX003 (ip), vehicle: distilled water + Tween-80) was 93 % of control, the T/C (dose: 50.0 mg/kg/injection, schedule: Q04DX003 (ip), vehicle: distilled water + Tween-80) was 96 % of control and the T/C (dose: 100.0 mg/kg/injection, schedule: Q04DX003 (ip), vehicle: distilled water + Tween-80) was 96 % of control. For the same compound, the T/C (dose: 200.0 mg/kg/injection, schedule: Q04DX003 (ip), vehicle: distilled water + Tween-80) was 96 % of control.

With `C[N+](C)(C)c1ccccc1.F[P-](F)(F)(F)(F)F` the T/C (dose: 6.25 mg/kg/injection, schedule: Q01DX009 (ip), vehicle: saline with Tween-80) was 86 % of control, the T/C (dose: 6.25 mg/kg/injection, schedule: Q04DX003 (ip), vehicle: saline with Tween-80) was 97 % of control and the T/C (dose: 12.5 mg/kg/injection, schedule: Q01DX009 (ip), vehicle: saline with Tween-80) was 100 % of control. For the same compound, the T/C (dose: 12.5 mg/kg/injection, schedule: Q04DX003 (ip), vehicle: saline with Tween-80) was 97 % of control, the T/C (dose: 25.0 mg/kg/injection, schedule: Q01DX009 (ip), vehicle: saline with Tween-80) was 96 % of control and the T/C [6] was 102 % of control.

With `CCCCCCCCCCCCOP(=O)(CCC)OCCCCCCCCCCCC` the T/C [7] was 91 % of control [survivor count not shown], the T/C (dose: 200.0 mg/kg/injection, schedule: Q04DX003 (ip), vehicle: saline with Tween-80) was 111 % of control [survivor count not shown] and the T/C (dose: 400.0 mg/kg/injection, schedule: Q04DX003 (ip), vehicle: saline with Tween-80) was 91 % of control [survivor count not shown].

For `[N-]=[N+]=NCC(O)CN=[N+]=[N-]` (stereo not given), the survivor count (dose: 75.0 mg/kg/injection, schedule: Q01DX009 (ip), vehicle: saline with Tween-80) was 4 of 6, the survivor count (dose: 150.0 mg/kg/injection, schedule: Q01DX009 (ip), vehicle: saline with Tween-80) was 0 of 6 and the survivor count (dose: 300.0 mg/kg/injection, schedule: Q01DX009 (ip), vehicle: saline with Tween-80) was 0 of 6.

`C/C(CC/C(C)=N\Nc1ccc([N+](=O)[O-])cc1[N+](=O)[O-])=N/Nc1ccc([N+](=O)[O-])cc1[N+](=O)[O-]` was tested, and the T/C [3] was 94 % of control, the T/C [4] was 86 % of control and the survivor count [5] was 6 of 6.

`Clc1ccc(P(Cl)Cl)cc1` was tested, and the T/C (dose: 10.0 mg/kg/injection, schedule: Q01DX001 (ip), vehicle: saline with Tween-80) was 103 % of control, the T/C (dose: 20.0 mg/kg/injection, schedule: Q01DX001 (ip), vehicle: saline with Tween-80) was 95 % of control and the T/C (dose: 40.0 mg/kg/injection, schedule: Q01DX001 (ip), vehicle: saline with Tween-80) was 103 % of control. The survivor count [3] was 3 of 6, the survivor count [4] was 1 of 6 and the survivor count [5] was 0 of 6.

With `Cc1cc(Cl)ccc1Nc1c([N+](=O)[O-])cc([N+](=O)[O-])cc1[N+](=O)[O-]` the T/C [8] was 100 % of control [survivor count not shown], the T/C [9] was 100 % of control [survivor count not shown] and the T/C [10] was 103 % of control [survivor count not shown].

With `CP(I)(Oc1ccccc1)(Oc1ccccc1)Oc1ccccc1` the T/C (dose: 100.0 mg/kg/injection, schedule: Q04DX002 (sc), vehicle: saline with Tween-80) was 96 % of control [survivor count not shown], the T/C (dose: 200.0 mg/kg/injection, schedule: Q04DX002 (sc), vehicle: saline with Tween-80) was 90 % of control [survivor count not shown] and the T/C (dose: 400.0 mg/kg/injection, schedule: Q04DX002 (sc), vehicle: saline with Tween-80) was 104 % of control [survivor count not shown].

With `CP(=O)(O)O` the T/C (dose: 100.0 mg/kg/injection, schedule: Q01DX009 (ip), vehicle: saline) was 107 % of control [survivor count not shown] and the T/C (dose: 200.0 mg/kg/injection, schedule: Q01DX009 (ip), vehicle: saline) was 93 % of control [survivor count not shown].

`COc1cnc2ccccc2n1.O=[N+]([O-])c1cc([N+](=O)[O-])c(O)c([N+](=O)[O-])c1` was tested, and the T/C [8] was 103 % of control, the T/C [9] was 93 % of control and the T/C [10] was 93 % of control [5 of 6 alive].

For `CC(CO)NC1CCCC1.O=[N+]([O-])c1cc([N+](=O)[O-])c(O)c([N+](=O)[O-])c1`, the T/C (dose: 75.0 mg/kg/injection, schedule: Q01DX001 (ip), vehicle: other) was 95 % of control, the T/C (dose: 150.0 mg/kg/injection, schedule: Q01DX001 (ip), vehicle: other) was 93 % of control and the T/C (dose: 300.0 mg/kg/injection, schedule: Q01DX001 (ip), vehicle: other) was 97 % of control.

`ClC(Cl)(Cl)C1SCCCS1` was tested, and the T/C (dose: 50.0 mg/kg/injection, schedule: Q01DX009 (ip), vehicle: saline with Tween-80) was 94 % of control, the T/C (dose: 100.0 mg/kg/injection, schedule: Q01DX009 (ip), vehicle: saline with Tween-80) was 97 % of control and the T/C (dose: 200.0 mg/kg/injection, schedule: Q01DX009 (ip), vehicle: saline with Tween-80) was 102 % of control.

`S=P(Cl)(Cl)c1ccc(Cl)cc1` was tested, and the T/C [6] was 100 % of control, the T/C (dose: 50.0 mg/kg/injection, schedule: Q04DX003 (ip), vehicle: saline with Tween-80) was 98 % of control and the survivor count [7] was 1 of 6.
